Patent publication US20040141955A1, “Compositions related to a novel endophytic fungi and methods of use” (priority 2001, published 2004)
Read-outs that look alike come from different tables or passages of the source. At least one read-out could not be matched to a standard name with certainty.

Test system: R. solani
Type: cell-based
Settings: for Colony diameter at 3 days (mm): untreated control 70-72 mm
Description: In one set of experiments, a Petri plate divided by plastic walls into 3 equal spaces was used for the assay. A plug of R. solani was placed in one section of the Petri plate containing PDA. On another section of the plate, a lx2 cm piece of sterile filter paper was loaded with the test compound(s). All plates were wrapped with two layers of saran film and incubated at room temperature. The head space in each plate was 65 ml. Removing the agar plug and placing it onto a fresh PDA Petri plate determined the viability of R. Solani exposed to each test compound. Control experiments were also conducted along side without test compound(s).
The diameter of R. solani colonies on untreated control plates was 70-72 mm. The (+) symbol in the viability column of each table above indicates continued viability of the organism after exposure to and removal from the given compound or mixture, while the (−) symbol indicates death of the organism. Multiple (+) and (−) symbols in the same column indicate the results of multiple trials.
Synergism between the volatile organic components produced by M. albus was studied using the method of Limpel as described by Richer (Richer, D. L. 1987). The determination of synergy as described by Limpel can be represented by the following equation: […]
Where Ee is the expected additive effect of the two antifungal compounds, X is the observed percentage of inhibition of the test organism when antifungal agent A is applied alone at the rate used in the mixture, and Y is the observed percentage inhibition of the test organism when antifungal agent B is used alone at the rate used in the mixture.
Experimental studies were set up to determine if synergy exists between the components produced by M. albus. The biological activity of individual volatile organic compounds and mixtures of volatile organic compounds was tested according to the method described in Example 10 above. The observed inhibitory effects of the volatile organic compounds were then compared to the expected additive effects as calculated from the equation above.

[1] = single compound, amount 0.11 (7 μl/65 mL head space)
[2] = single compound, amount 0.23 (15 μl/65 mL head space)
[3] = single compound, amount 0.46 (30 μl/65 mL head space)
[4] = single compound, amount 0.92 (60 μl/65 mL head space)

Compound	Viability [1]	Colony diameter at 3 days (mm) [1]	Viability [2]	Colony diameter at 3 days (mm) [2]	Viability [3]	Colony diameter at 3 days (mm) [3]	Viability [4]	Viability (Table 13, 30 μl (0.92) or 30 μl each (0.92) per 65 mL head space)	Colony diameter at 3 days (mm) [4]
CCC(C)CO (stereo not shown) [2-Methyl-1-butanol]	(+)	66 mm	(+)	55 mm	(+)	30.5 mm	(+)	–	–
CCCC(=O)OCC [Ethyl butyrate]	–	–	–	–	–	–	(+)	(+)	–
CC(C)CO [Isobutyl alcohol]	(+)	70 mm	(+)	70 mm	(+)	58 mm	(+)	–	15 mm
CC(C)C(=O)O [Isobutyric acid]	–	–	(+)	12 mm	–	4 mm	–	–	–
OCCc1ccccc1 [Phenethyl alcohol]	–	–	–	66.5 mm	–	67.5 mm	–	–	–
